Measurements taken from publication PMC12509316, “Isoform-Selective PAD2/PAD4 Substrates with Unnatural Amino Acids Enable Cellular Peptidylarginine Deiminase Activity Profiling and Reveal Vimentin Citrullination Effects in Macrophages” (Biochemistry, 2025).

Legend:
caspase-3 = experiment: Vimentin processing by caspase-3 (SDS-PAGE, Coomassie); assay type: biochemical, human; conditions: caspase-3 20 nM, 30 min
calpain-1 = experiment: Vimentin processing by calpain-1 (SDS-PAGE, Coomassie); assay type: biochemical, human; conditions: calpain-1 10 nM

| Substance | cleavage by caspase-3 (caspase-3) | full-length protein 30 min after addition of calpain-1 (calpain-1; 30 min) | cleavage by calpain-1 compared to nonmodified form (calpain-1; up to 30 min) | full-length protein 15 min after addition of calpain-1 (calpain-1; 15 min) |
| --- | --- | --- | --- | --- |
| citrullinated vimentin: PAD4-mediated citrullinated vimentin | cleaved at the same sites and exhibited similar kinetics | remained detectable | delayed |  |
| vimentin: Recombinant vimentin, purchased from Biotechne (NBP2-35139) | cleaved at the same sites and exhibited similar kinetics |  |  | almost completely disappeared |
